Consider one molecule from US20120219559A1 (Johns Hopkins, published 2012).

This experiment addresses T1, ICOS (Mus musculus, UniProt Q9WVS0).
T1 sequence (membrane protein, looked up): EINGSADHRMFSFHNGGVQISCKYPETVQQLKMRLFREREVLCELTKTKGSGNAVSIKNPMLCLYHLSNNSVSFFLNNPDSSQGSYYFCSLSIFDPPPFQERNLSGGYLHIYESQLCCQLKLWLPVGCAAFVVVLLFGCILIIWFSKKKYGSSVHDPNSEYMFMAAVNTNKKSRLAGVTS
The experiment is described as follows: CDS well image, 293T cells transfected with the mouse gene, stained with the mouse fusion protein.

These are yes or no findings as the source states them, for the method shown. Some entries that bind do so weakly or less than the wild type.

B1: B7-H2Ig (Fc fusion, Mus musculus, UniProt Q9JHJ8 47-279, looked up)
fusion protein: ETEVGAMVGSNVVLSCIDPHRRHFNLSGLYVYWQIENPEVSVTYYLPYKSPGINVDSSYKNRGHLSLDSMKQGNFSLYLKNVTPQDTQEFTCRVFMNTATELVKILEEVVRLRVAANFSTPVISTSDSSNPGQERTYTCMSKNGYPEPNLYWINTTDNSLIDTALQNNTVYLNKLGLYDVISTLRLPWTSRGDVLCCVENVALHQNITSISQAESFTGNNTKNPQETHNNELK
notes: Ig fusion protein purchased from R&D systems; also called mouse B7-H2Ig fusion protein
For the molecule B1, the binding entry was “binds”.
